Our source for the binding values is paper doi:10.1101/2021.03.31.437874.

Sequences of proteins named here, by UniProt entry; tags and fusion partners are left off.
UniProt P39687: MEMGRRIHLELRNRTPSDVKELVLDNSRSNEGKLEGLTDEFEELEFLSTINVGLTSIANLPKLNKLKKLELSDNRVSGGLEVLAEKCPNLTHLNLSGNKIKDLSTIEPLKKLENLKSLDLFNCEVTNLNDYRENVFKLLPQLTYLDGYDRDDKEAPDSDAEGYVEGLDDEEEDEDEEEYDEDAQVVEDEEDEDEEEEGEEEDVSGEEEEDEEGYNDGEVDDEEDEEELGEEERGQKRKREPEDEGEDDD
UniProt Q5U249: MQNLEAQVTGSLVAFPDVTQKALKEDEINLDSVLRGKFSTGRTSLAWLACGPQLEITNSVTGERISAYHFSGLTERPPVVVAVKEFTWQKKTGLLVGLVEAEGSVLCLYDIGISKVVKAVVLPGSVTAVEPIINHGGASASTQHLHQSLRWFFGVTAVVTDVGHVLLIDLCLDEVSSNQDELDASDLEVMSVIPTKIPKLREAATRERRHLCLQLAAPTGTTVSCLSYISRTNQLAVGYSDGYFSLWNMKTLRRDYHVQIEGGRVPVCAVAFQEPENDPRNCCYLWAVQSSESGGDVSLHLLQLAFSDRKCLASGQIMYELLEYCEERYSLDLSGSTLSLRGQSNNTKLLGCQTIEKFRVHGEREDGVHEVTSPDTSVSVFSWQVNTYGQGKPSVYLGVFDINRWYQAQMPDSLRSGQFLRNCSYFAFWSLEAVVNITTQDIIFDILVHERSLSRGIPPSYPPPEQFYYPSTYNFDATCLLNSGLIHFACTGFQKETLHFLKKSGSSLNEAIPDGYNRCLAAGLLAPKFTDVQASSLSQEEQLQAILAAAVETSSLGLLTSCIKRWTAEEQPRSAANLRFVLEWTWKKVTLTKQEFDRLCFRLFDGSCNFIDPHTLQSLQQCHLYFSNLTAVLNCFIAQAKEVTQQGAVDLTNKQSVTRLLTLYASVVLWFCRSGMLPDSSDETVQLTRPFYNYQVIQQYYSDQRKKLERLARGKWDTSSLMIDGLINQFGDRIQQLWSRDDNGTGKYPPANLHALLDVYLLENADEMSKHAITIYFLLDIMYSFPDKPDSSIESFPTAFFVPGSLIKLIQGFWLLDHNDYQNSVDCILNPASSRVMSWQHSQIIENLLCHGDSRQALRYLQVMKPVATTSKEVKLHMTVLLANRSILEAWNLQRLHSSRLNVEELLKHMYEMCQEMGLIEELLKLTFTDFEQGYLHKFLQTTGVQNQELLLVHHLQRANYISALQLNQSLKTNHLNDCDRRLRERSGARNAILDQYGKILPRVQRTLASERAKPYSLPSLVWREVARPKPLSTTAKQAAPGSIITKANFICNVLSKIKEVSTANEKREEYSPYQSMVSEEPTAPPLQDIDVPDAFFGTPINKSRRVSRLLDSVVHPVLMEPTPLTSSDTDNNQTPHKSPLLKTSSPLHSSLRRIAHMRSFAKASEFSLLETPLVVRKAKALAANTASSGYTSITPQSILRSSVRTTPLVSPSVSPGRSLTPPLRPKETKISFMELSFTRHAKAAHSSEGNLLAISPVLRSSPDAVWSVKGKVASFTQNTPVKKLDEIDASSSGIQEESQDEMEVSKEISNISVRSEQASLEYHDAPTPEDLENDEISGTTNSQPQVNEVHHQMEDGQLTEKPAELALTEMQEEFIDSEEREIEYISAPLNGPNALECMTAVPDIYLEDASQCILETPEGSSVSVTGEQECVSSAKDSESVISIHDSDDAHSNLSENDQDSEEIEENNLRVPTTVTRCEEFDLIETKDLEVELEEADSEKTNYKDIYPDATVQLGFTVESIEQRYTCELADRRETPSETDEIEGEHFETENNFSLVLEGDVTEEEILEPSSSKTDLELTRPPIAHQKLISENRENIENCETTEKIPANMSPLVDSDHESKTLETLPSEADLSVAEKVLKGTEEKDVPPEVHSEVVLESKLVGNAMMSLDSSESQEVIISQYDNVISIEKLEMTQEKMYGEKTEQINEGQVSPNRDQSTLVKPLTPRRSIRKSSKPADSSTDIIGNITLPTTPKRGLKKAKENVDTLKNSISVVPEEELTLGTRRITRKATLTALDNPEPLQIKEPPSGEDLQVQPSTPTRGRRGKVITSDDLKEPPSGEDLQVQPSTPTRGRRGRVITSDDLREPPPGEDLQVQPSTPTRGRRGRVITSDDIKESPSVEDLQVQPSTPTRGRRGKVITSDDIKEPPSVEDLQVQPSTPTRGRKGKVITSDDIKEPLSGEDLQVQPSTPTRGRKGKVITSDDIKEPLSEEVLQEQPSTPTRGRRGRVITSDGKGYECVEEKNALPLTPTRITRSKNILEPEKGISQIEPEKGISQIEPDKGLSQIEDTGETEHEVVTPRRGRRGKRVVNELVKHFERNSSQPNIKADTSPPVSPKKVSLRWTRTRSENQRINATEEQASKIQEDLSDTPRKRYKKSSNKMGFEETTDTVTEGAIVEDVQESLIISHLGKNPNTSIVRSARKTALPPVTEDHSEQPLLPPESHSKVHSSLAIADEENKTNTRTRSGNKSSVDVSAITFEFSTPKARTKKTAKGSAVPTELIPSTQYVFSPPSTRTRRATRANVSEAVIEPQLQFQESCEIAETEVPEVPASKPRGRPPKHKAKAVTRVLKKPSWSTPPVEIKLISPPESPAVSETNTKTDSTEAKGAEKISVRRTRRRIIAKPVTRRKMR
UniProt Q640Z6: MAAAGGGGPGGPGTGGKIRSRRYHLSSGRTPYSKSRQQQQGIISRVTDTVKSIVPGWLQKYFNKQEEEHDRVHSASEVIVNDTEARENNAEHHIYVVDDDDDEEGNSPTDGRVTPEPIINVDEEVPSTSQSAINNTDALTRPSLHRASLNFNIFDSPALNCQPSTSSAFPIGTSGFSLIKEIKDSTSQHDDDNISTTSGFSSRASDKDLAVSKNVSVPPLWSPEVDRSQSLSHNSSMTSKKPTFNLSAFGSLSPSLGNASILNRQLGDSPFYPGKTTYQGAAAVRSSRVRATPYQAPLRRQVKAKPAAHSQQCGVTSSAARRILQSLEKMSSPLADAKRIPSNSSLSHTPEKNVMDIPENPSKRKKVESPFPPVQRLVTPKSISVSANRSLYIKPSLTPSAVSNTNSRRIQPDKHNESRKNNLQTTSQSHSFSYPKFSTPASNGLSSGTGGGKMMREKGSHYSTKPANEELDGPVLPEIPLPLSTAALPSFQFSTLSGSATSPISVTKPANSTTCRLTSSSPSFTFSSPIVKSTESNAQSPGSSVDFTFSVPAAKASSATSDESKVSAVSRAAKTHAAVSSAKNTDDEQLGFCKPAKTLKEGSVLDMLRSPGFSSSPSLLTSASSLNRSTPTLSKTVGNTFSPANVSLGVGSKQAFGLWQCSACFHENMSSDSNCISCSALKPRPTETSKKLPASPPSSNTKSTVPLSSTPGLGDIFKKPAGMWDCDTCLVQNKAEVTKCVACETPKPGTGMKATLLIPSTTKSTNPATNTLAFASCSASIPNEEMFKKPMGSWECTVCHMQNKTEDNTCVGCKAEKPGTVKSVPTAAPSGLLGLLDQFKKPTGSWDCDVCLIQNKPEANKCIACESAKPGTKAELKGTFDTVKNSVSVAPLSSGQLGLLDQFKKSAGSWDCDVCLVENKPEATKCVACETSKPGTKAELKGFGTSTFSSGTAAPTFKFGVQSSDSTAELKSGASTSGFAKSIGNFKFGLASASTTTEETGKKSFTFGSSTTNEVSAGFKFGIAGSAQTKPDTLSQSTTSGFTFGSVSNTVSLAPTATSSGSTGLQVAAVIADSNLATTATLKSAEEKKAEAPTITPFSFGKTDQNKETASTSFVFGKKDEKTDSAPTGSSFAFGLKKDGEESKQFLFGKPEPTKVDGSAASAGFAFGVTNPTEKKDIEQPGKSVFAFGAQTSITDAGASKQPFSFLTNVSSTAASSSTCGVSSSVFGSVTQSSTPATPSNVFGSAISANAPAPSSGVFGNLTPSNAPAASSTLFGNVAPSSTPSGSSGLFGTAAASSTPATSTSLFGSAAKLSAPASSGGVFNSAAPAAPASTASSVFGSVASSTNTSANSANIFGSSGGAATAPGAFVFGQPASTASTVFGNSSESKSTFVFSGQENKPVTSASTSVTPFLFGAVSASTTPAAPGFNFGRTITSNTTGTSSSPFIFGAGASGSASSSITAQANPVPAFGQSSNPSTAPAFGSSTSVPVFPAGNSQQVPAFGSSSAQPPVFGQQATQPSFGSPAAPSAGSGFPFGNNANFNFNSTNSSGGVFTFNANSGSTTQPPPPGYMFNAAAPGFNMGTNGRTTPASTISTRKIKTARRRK
UniProt P18754: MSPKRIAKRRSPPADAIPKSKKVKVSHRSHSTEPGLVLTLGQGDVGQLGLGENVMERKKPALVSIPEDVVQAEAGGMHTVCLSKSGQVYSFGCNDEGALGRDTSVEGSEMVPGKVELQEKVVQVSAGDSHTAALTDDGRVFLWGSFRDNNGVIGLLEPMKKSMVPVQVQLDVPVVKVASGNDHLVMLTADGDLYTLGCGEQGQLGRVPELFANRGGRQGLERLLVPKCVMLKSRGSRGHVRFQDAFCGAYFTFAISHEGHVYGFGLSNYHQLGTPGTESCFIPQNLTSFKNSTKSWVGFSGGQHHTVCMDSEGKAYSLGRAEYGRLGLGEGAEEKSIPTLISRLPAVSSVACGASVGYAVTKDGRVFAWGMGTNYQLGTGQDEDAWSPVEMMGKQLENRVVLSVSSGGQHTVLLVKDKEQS

In experiment [1] the target is T1, FLAG-Nup50 N-terminal fragment (aa 1-120 of the human sequence) (human) (UniProt Q9UKX7).
T1 sequence: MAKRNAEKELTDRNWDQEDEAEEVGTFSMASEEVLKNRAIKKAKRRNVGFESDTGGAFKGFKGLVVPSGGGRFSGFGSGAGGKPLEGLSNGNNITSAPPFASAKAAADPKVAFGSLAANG
The experiment in a line: co-IP.

The target of experiment [2] is T2, mouse Nup50A C-terminally tagged with EGFP (mouse) (UniProt Q9JIH2).
T2 sequence: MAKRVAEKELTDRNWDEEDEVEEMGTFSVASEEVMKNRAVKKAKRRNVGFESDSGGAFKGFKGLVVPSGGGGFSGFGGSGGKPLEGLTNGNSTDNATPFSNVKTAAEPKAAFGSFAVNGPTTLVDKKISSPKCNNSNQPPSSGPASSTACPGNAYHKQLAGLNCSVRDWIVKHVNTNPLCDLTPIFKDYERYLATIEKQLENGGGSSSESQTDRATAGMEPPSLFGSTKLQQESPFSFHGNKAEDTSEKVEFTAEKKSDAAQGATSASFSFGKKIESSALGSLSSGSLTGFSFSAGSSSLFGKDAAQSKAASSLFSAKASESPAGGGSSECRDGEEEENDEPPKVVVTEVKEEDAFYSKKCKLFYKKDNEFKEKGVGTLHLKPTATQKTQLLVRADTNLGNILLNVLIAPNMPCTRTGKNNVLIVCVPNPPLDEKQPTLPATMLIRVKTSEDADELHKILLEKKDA
Kind of experiment: co-IP.

For experiment [3], the target named is T3, mouse Nup50A N-terminally tagged with EGFP (mouse) (UniProt Q9JIH2).
T3 sequence: T2 sequence
Kind of experiment: co-IP.

Experiment [4] addresses T4, GST-fusion of mouse Nup50A (mouse) (UniProt Q9JIH2).
T4 sequence: T2 sequence
Kind of experiment: pull-down.

Experiment [5] deals with T5, FLAG-tagged 29-120 fragment of human Nup50 (human) (UniProt Q9UKX7).
T5 sequence: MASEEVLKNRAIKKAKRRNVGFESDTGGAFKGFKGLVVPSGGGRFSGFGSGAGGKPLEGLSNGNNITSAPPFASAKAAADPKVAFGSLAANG
Kind of experiment: co-IP.

No constants are given. Whether binding was seen depends on the method and setting. Binding seen in cells or lysates may run through a third protein. Some entries that bind do so weakly or less than the wild type. Sequences can lack the tags named with a protein.

Regarding “ANP32A, endogenous in HEK293T (from UniProt P39687 1-249)”, the binding result in experiment [1] is listed as “binds”; in experiment [2], “no binding”; in experiment [3] it was “no binding”.

Turning to “MEL28/ELYS (endogenous, Xenopus egg extracts) (from UniProt Q5U249 1-2408)”, the binding entry in experiment [4] was “binds”.

Regarding “Nup153 (endogenous, Xenopus egg extracts) (from UniProt Q640Z6 1-1605)”, the binding result in experiment [4] is “binds”.

As for “RCC1, endogenous in HEK293T (from UniProt P18754 1-421) (enzyme)”, the binding entry in experiment [1] and in experiment [5] was “binds” in each case.
